This is one part of the list. The calls rarely recur for the same compound in another form.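 In K562 cells expressing nanoluciferase-fused kinases, luminescence was recorded at 4 h intervals between 2 and 18 h, normalized as percent of control with DMSO at 100% and a positive control at 0%. A significant (2 sigma) signal drop marks a time point as decreased. The authors' rule for a hit is not shown and takes in more than the number of time points.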
What follows are molecules tested against EGFR_L858R (UniProt P00533) (assay: kinase-Nluc reporter destabilization hit call (1 = scored as downregulated) (binary); higher = compound decreases kinase abundance). Details: K562; 2-18 h.

kinase-Nluc reporter destabilization hit call, inactive:
CC(C)(C)n1nc(Cc2cccc3ccccc23)c2c(N)ncnc21 (10 µM) 0, CC1(C)CC=C(c2nc(C3CC(C)(C)OC(C)(C)C3)ccc2NC(=O)c2nc(C#N)c[nH]2)CC1 [Edicotinib] (2.5 µM) 0, Cc1nc(-c2cnc(NC(C)C)n(C)c2=O)ccc1Oc1ccnc(-c2cnn(C)c2)c1 (2.5 µM) 0, CN(C)C(=O)/C(C#N)=C/c1ccc(-c2nc3cnc4[nH]ccc4c3n2C2CCCCC2)o1 (10 µM) 0, CCCS(=O)(=O)Nc1ccc(F)c(C(=O)c2c[nH]c3ncc(Cl)cc23)c1F (10 µM) 0, CNC(=O)c1cccc(-c2ccc3c(N4CCOC[C@@H]4C)nc(N4CCOC[C@@H]4C)nc3n2)c1 [Vistusertib] (2.5 µM) 0, COCCNCCc1cccc(Nc2ncc3c(n2)-c2ccccc2[C@H](c2ccccc2F)C3)c1 [Derazantinib] (2.5 µM) 0, COc1ccc(COc2ccc(Cc3cnc(N)nc3N)cc2OC)cc1 (10 µM) 0, CC(=O)N1CCN(c2ccc(OCC3COC(Cn4ccnc4)(c4ccc(Cl)cc4Cl)O3)cc2)CC1 (configuration not stated) [Ketoconazole] (2.5 µM) 0, Cc1ccc(F)c(NC(=O)Nc2ccc(-c3cccc4[nH]nc(N)c34)cc2)c1 [Linifanib] (2.5 µM) 0, NC(=O)c1ccc2nc(-c3ccc(Oc4ccc(Cl)cc4)cc3)[nH]c2c1 (10 µM) 0, CC(C)(C)c1cc(NC(=O)Nc2ccc(-c3cn4c(n3)sc3cc(OCCN5CCOCC5)ccc34)cc2)no1 [Quizartinib] (10 µM) 0

Reference: the supplement of paper PMC12823440, “Inhibitors supercharge kinase turnover through native proteolytic circuits” (Nature, 2025)
